The other results are listed elsewhere or left out.
Tests used:
Experiment in all cases: glycan array binding signal (z-score within array); higher = stronger binding
Conditions in all cases: glycan notation: IUPAC condensed, linker removed
[1] = biological target: Neu5Ac(a2-3)Gal(b1-4)GlcNAc(b1-6)GalNAc
Procedure, shortened: (§1)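 Glycan array binding is given as a within-array Z-score, which can be read as non-binding when negative. The arrays, 3228 of them, came from the Consortium for Functional Glycomics database and were retained only where the protein sequence was available. Z-scores were averaged across arrays of the same protein sequence at different concentrations or buffers and across linkers.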

[2] = biological target: Neu5Ac(a2-3)Gal(b1-4)GlcNAc(b1-6)[Gal(b1-3)]GalNAc
Procedure, shortened: as §1

[3] = biological target: Neu5Ac(a2-3)Gal(b1-4)GlcNAc(b1-6)[Neu5Ac(a2-3)Gal(b1-3)]GalNAc
Procedure, shortened: as §1

[4] = biological target: Neu5Ac(a2-3)Gal(b1-4)GlcNAc6S
Procedure, shortened: as §1

[5] = biological target: Neu5Ac(a2-3)Gal(b1-4)[Fuc(a1-3)]GlcNAc
Procedure, shortened: as §1

[6] = biological target: Neu5Ac(a2-3)Gal(b1-4)[Fuc(a1-3)]GlcNAc(b1-2)Man
Procedure, shortened: as §1

[7] = biological target: Neu5Ac(a2-3)Gal(b1-4)[Fuc(a1-3)]GlcNAc(b1-3)Gal
Procedure, shortened: as §1

[8] = biological target: Neu5Ac(a2-3)Gal(b1-4)[Fuc(a1-3)]GlcNAc(b1-3)Gal(b1-4)GlcNAc
Procedure, shortened: as §1

[9] = biological target: Neu5Ac(a2-3)Gal(b1-4)[Fuc(a1-3)]GlcNAc(b1-3)Gal(b1-4)[Fuc(a1-3)]GlcNAc(b1-3)Gal(b1-4)[Fuc(a1-3)]GlcNAc
Procedure, shortened: as §1

[10] = biological target: Neu5Ac(a2-3)Gal(b1-4)[Fuc(a1-3)]GlcNAc(b1-3)GalNAc
Procedure, shortened: as §1

[11] = biological target: Neu5Ac(a2-3)Gal(b1-4)[Fuc(a1-3)]GlcNAc(b1-6)[Gal(b1-3)]GalNAc
Procedure, shortened: as §1

[12] = biological target: Neu5Ac(a2-3)Gal(b1-4)[Fuc(a1-3)]GlcNAc(b1-6)[Neu5Ac(a2-3)Gal(b1-3)]GalNAc
Procedure, shortened: as §1

[13] = biological target: Neu5Ac(a2-3)Gal(b1-4)[Fuc(a1-3)]GlcNAc6S
Procedure, shortened: as §1

[14] = biological target: Neu5Ac(a2-3)Gal6S(b1-4)GlcNAc
Procedure, shortened: as §1

[15] = biological target: Neu5Ac(a2-3)Gal6S(b1-4)[Fuc(a1-3)]GlcNAc
Procedure, shortened: as §1

Neu5Ac(a2-3)GalNAc = biological target: Neu5Ac(a2-3)GalNAc
Procedure, shortened: as §1

[16] = biological target: Neu5Ac(a2-3)GalNAc(b1-4)GlcNAc
Procedure, shortened: as §1

[17] = biological target: Neu5Ac(a2-3)[GalNAc(b1-4)]Gal(b1-4)Glc
Procedure, shortened: as §1

[18] = biological target: Neu5Ac(a2-3)[GalNAc(b1-4)]Gal(b1-4)GlcNAc
Procedure, shortened: as §1

[19] = biological target: Neu5Ac(a2-3)[GalNAc(b1-4)]Gal(b1-4)GlcNAc(b1-3)GalNAc
Procedure, shortened: as §1

[20] = biological target: Neu5Ac(a2-3)[Neu5Ac(a2-6)]GalNAc
Procedure, shortened: as §1

Neu5Ac(a2-6)Gal = biological target: Neu5Ac(a2-6)Gal
Procedure, shortened: as §1

[21] = biological target: Neu5Ac(a2-6)Gal(b1-3)GlcNAc(b1-3)[Gal(b1-4)GlcNAc(b1-6)]Gal(b1-4)Glc
Procedure, shortened: as §1

Neu5Ac(a2-6)Gal(b1-4)Glc = biological target: Neu5Ac(a2-6)Gal(b1-4)Glc
Procedure, shortened: as §1

[22] = biological target: Neu5Ac(a2-6)Gal(b1-4)GlcNAc
Procedure, shortened: as §1

[23] = biological target: Neu5Ac(a2-6)Gal(b1-4)GlcNAc(b1-2)Man
Procedure, shortened: as §1

[24] = biological target: Neu5Ac(a2-6)Gal(b1-4)GlcNAc(b1-2)Man(a1-3)Man(b1-4)GlcNAc(b1-4)GlcNAc
Procedure, shortened: as §1

[25] = biological target: Neu5Ac(a2-6)Gal(b1-4)GlcNAc(b1-2)Man(a1-3)[Gal(b1-4)GlcNAc(b1-2)Man(a1-6)]Man(b1-4)GlcNAc(b1-4)GlcNAc
Procedure, shortened: as §1

[26] = biological target: Neu5Ac(a2-6)Gal(b1-4)GlcNAc(b1-2)Man(a1-3)[GlcNAc(b1-2)Man(a1-6)]Man(b1-4)GlcNAc(b1-4)GlcNAc
Procedure, shortened: as §1

[27] = biological target: Neu5Ac(a2-6)Gal(b1-4)GlcNAc(b1-2)Man(a1-3)[GlcNAc(b1-4)][Neu5Ac(a2-6)Gal(b1-4)GlcNAc(b1-2)Man(a1-6)]Man(b1-4)GlcNAc(b1-4)GlcNAc
Procedure, shortened: as §1

B1: Protein L(A-C2) (Finegoldia magna), Q51912 (protein)
chain: ADEPIDLEKLEEKRDKENVGNLPKFDNEVKDGSENPMAKYPDFDDEASTRFETENNEFEEKKVVSDNFFDQSEHPFVENKEETPETPETDSEEEVTIKANLIFANGSTQTAEFKGTFEKATSEAYAYADTLKKDNGEYTVDVADKGYTLNIKFAGKEKTPEEPKEEVTIKANLIYADGKTQTAEFKGTFEEATAEAYRYADALKKDNGEYTVDVADKGYTLNIKFAGKEKTPEEPKEEVTIKANLIYADGKTQTAEFKGTFEEATAEAYRYADLLAKENGKYTVDVADKGYTLNIKFAGKEKTPEEPKEEVTIKANLIYADGKTQTAEFKGTFAEATAEAYRYADLLAKENGKYTADLEDGGYTINIRFAGKKVDEKPEEKEQVTIKENIYFEDGTVQTATFKGTFAEATAEAYRYADLLSKEHGKYTADLEDGGYTINIRFAGKEEPEETPEKPEVQDGYASYEEAEAAAKEALKNDDVNKSYTIRQGADGRYYYVLSPVEAEEEKPEAQNGYATYEEAEAAAKKALENDPINKSYSIRQGADGRYYYVLSPVEAE
[1]
  glycan array binding signal (z-score): -0.612
[2]
  glycan array binding signal (z-score): -0.007
[3]
  glycan array binding signal (z-score): -0.416
[4]
  glycan array binding signal (z-score): -0.331
[5]
  glycan array binding signal (z-score): -0.888
[6]
  glycan array binding signal (z-score): 0.146
[7]
  glycan array binding signal (z-score): -0.95
[8]
  glycan array binding signal (z-score): 0.23
[9]
  glycan array binding signal (z-score): -0.249
[10]
  glycan array binding signal (z-score): 1.95
[11]
  glycan array binding signal (z-score): 2.06
[12]
  glycan array binding signal (z-score): 1.52
[13]
  glycan array binding signal (z-score): -0.333
[14]
  glycan array binding signal (z-score): -0.81
[15]
  glycan array binding signal (z-score): -1.05
Neu5Ac(a2-3)GalNAc
  glycan array binding signal (z-score): -1.03
[16]
  glycan array binding signal (z-score): -1.05
[17]
  glycan array binding signal (z-score): -0.886
[18]
  glycan array binding signal (z-score): -0.31
[19]
  glycan array binding signal (z-score): 2.78
[20]
  glycan array binding signal (z-score): -0.321
Neu5Ac(a2-6)Gal
  glycan array binding signal (z-score): -0.739
[21]
  glycan array binding signal (z-score): -0.793
Neu5Ac(a2-6)Gal(b1-4)Glc
  glycan array binding signal (z-score): -0.604
[22]
  glycan array binding signal (z-score): 0.237
[23]
  glycan array binding signal (z-score): 0.253
[24]
  glycan array binding signal (z-score): -0.807
[25]
  glycan array binding signal (z-score): -0.313
[26]
  glycan array binding signal (z-score): -0.924
[27]
  glycan array binding signal (z-score): 0.228

Source: the supplement of paper PMC8728848
